# Laboratory results reported in the supplement of paper PMC11732987, “Enantioselective OTUD7B fragment discovery through chemoproteomics screening and high-throughput optimisation” (Communications Chemistry, 2025).
# Chains of the proteins cited; added tags and fusions are not shown. Lines headed by an entry give the natural chain unless they say otherwise; changes in a name come on top.
# UniProt O60293: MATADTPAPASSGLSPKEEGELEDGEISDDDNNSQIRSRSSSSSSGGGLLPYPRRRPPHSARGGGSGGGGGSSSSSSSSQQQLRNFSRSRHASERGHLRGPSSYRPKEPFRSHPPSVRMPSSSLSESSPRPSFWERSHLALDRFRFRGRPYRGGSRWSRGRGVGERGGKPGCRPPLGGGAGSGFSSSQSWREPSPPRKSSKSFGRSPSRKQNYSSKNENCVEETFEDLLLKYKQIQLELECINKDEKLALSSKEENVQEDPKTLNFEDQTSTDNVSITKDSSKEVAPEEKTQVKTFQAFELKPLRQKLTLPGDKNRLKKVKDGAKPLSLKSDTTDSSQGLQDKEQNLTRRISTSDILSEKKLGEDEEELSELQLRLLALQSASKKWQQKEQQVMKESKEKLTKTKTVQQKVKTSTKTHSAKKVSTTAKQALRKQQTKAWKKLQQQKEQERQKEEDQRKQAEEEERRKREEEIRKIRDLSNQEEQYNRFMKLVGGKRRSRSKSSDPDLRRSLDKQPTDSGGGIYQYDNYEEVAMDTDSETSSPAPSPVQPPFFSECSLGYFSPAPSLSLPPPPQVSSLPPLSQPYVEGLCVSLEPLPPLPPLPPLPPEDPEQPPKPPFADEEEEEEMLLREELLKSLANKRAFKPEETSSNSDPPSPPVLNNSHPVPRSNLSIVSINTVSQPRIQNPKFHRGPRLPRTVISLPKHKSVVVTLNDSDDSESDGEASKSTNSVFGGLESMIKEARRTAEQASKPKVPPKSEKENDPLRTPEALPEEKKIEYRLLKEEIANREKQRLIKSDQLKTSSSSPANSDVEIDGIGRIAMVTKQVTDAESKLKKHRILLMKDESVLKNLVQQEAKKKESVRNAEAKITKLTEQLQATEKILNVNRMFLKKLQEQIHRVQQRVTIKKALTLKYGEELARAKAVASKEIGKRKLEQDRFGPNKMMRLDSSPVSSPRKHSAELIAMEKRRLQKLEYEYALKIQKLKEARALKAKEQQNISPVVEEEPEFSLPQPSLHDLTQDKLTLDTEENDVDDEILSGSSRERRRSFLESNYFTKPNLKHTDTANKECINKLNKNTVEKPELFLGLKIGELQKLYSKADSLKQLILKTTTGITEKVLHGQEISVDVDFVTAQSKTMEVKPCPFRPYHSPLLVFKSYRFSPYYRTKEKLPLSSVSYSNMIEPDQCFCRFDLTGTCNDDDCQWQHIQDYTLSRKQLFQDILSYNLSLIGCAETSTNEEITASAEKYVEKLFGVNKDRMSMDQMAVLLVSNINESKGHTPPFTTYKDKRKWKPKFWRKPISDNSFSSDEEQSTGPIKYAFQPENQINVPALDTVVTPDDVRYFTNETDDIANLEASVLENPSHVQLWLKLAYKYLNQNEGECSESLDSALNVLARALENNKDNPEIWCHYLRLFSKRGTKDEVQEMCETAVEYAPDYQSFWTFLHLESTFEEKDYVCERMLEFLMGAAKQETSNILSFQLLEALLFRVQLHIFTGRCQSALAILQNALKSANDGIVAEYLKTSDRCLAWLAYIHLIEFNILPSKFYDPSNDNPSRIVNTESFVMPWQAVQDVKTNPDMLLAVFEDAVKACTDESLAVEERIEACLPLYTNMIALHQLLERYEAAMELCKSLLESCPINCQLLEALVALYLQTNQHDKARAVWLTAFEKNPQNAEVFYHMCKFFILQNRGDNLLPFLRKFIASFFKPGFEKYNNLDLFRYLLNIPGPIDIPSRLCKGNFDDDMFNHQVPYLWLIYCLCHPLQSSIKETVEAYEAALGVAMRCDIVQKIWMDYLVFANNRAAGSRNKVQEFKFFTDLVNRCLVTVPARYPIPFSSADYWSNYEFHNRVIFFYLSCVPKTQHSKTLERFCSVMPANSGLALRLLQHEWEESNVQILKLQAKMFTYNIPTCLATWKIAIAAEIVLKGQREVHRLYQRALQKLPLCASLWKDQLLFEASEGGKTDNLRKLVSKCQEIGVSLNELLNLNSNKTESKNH
# UniProt Q6NUN9: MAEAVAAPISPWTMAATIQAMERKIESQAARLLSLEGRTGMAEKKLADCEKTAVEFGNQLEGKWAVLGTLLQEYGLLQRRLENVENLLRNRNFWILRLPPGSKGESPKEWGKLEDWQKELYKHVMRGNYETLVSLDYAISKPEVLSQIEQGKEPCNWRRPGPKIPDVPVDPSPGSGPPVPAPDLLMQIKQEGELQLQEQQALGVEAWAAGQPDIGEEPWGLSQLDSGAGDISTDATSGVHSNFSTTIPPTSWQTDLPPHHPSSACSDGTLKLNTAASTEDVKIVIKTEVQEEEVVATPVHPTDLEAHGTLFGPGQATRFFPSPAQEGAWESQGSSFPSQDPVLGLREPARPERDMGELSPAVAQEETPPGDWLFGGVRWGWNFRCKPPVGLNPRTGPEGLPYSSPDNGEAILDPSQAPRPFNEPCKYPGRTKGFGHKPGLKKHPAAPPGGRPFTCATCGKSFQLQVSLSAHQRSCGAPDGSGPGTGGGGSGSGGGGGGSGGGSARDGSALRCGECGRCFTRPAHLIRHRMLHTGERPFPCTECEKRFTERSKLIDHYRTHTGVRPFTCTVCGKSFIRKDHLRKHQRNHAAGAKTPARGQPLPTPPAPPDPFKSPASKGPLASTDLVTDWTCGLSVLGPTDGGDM
# UniProt Q9C0G0: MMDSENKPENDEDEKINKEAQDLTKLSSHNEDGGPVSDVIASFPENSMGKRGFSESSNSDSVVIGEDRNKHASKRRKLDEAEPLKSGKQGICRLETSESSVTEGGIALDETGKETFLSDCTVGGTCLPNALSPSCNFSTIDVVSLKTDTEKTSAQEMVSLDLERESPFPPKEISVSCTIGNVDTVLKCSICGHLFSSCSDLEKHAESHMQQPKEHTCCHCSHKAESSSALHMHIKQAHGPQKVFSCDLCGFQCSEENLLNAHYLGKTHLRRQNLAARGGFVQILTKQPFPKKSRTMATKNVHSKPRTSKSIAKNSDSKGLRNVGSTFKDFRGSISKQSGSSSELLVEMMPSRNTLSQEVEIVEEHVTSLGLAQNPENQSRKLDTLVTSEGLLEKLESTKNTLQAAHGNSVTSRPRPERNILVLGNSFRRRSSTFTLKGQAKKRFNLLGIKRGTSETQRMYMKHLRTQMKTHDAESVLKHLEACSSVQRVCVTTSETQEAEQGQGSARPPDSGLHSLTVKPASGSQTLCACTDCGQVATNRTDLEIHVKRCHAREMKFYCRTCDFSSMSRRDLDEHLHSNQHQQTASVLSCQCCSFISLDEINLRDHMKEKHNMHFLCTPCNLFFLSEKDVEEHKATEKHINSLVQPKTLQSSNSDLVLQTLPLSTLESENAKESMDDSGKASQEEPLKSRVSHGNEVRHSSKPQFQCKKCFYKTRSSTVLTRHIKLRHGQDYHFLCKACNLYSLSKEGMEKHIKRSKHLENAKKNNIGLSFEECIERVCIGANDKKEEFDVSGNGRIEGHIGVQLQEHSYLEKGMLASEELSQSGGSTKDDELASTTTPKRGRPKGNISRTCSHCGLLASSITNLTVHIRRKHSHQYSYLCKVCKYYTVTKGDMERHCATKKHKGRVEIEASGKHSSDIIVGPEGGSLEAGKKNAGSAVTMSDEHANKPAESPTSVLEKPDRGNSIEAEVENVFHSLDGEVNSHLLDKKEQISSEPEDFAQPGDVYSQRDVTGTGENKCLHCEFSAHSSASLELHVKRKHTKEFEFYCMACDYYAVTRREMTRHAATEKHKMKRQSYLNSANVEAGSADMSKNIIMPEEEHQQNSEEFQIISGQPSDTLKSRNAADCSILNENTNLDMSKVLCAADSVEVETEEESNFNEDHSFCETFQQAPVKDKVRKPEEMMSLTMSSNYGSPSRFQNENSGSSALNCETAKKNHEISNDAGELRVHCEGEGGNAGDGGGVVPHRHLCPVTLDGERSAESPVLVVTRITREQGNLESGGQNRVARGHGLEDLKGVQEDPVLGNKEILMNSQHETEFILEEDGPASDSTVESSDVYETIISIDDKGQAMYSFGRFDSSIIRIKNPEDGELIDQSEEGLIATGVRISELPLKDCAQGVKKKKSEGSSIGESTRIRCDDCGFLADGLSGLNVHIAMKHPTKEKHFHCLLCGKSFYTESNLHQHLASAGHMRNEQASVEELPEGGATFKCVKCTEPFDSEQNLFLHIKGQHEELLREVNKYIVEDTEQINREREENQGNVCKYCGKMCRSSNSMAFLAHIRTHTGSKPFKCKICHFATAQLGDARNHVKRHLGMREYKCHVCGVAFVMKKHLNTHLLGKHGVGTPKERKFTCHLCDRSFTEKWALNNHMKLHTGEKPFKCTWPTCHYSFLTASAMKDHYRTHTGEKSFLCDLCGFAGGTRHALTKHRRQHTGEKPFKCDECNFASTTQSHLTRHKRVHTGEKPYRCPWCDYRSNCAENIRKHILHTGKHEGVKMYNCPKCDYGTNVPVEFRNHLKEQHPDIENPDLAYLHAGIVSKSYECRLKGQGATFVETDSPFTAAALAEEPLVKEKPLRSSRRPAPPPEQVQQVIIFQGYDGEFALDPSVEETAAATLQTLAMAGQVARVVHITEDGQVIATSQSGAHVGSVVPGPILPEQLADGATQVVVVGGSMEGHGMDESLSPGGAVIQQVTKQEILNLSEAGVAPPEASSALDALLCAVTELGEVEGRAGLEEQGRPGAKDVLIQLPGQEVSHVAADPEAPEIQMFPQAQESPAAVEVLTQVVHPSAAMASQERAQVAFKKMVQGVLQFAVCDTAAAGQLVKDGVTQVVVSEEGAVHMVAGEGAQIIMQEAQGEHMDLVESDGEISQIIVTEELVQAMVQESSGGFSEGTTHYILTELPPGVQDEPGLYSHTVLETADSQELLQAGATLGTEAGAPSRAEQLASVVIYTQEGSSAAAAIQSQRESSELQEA
# UniProt Q16670: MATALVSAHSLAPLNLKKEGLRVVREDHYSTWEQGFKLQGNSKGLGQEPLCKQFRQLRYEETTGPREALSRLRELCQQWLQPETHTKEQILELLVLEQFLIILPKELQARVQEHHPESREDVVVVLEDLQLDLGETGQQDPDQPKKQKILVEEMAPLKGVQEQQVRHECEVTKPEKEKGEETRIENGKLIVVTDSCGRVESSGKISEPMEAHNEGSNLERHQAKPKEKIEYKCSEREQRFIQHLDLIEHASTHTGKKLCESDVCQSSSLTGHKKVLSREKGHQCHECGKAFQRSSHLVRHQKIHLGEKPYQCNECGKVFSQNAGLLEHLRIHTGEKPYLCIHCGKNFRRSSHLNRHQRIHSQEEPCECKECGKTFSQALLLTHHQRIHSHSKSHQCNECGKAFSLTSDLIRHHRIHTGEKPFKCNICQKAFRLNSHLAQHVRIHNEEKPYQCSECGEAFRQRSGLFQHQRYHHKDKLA
# UniProt Q8ND82: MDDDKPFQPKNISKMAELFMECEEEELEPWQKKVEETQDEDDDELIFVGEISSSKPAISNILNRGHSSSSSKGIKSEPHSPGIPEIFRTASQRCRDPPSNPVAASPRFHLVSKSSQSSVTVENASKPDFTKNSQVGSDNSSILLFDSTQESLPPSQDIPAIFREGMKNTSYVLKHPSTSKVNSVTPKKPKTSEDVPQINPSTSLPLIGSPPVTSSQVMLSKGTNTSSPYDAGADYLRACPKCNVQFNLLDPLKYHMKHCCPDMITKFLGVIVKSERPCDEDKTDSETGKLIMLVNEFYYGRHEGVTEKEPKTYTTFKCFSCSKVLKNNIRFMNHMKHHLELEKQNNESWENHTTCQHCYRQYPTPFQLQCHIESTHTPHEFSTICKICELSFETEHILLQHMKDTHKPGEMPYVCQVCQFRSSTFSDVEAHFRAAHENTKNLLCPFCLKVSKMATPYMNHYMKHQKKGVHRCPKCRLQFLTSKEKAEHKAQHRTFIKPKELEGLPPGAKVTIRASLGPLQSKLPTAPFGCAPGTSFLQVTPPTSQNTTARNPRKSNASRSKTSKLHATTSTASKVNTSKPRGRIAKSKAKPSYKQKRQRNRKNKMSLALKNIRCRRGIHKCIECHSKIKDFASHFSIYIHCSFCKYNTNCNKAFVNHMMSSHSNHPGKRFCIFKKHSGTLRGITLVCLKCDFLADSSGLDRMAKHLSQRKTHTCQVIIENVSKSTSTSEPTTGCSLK
# UniProt Q9NWK9: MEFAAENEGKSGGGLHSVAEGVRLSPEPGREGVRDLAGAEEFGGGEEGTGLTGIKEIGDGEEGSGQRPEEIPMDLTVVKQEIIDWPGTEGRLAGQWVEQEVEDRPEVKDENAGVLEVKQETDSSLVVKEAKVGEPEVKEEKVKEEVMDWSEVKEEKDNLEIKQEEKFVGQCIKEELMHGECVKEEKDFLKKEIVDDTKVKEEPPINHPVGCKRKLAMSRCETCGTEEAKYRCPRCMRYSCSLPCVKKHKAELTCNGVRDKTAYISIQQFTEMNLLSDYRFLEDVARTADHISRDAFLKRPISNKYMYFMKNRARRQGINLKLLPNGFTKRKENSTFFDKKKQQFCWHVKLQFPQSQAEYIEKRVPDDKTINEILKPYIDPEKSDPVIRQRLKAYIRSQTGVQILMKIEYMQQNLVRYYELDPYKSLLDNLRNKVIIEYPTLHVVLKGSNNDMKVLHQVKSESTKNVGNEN
# The other results are listed elsewhere or left out. The data scatter; read single values as rough.
# Compound: ClCC(=O)N[C@H]1CCCc2ccccc12
# Assay: log2 mean competition ratio of IA-DTB cysteine labelling (DMSO/compound) (log2 ratio); higher = stronger cysteine engagement by compound
# Details: 200 µM; treatment time: 4 h; cell line lysate: HEK293T
# Experimental: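 IA-DTB competitive cysteine chemoproteomics in HEK293T RIPA lysate. Lysates were treated with compound 29 or 30 at 50 or 200 µM for 4 h, then IA-DTB (500 µM, 1 h), trypsin-digested, NeutrAvidin-enriched and analysed by diaPASEF. Competition ratio = intensity DMSO / intensity compound (n=4 treated, n=64 DMSO); binding: mean log2 CR ≥ 1 and p ≤ 0.05 plus QC filters. Target is the cysteine site.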
row,Target,log2 mean competition ratio
1,ZFC3H1 C241 (UniProt O60293),0.0715
2,ZNF609 C1290 (UniProt O15014),0.165
3,ZNF709 C403(C459)(C515),1.34
4,ZNF507 C86 (UniProt Q8TCN5),-0.208
5,ZNF185 C615,-0.0557
6,ZNF592 C265 (UniProt Q92610),-0.11
7,ZMAT3 C107,0.383
8,ZC3HAV1L C182 (UniProt Q96H79),-0.415
9,ZDBF2 C162,0.126
10,ZNF598 C426 (UniProt Q86UK7),-0.319
11,ZNF805 C168,0.21
12,ZW10 C346 (UniProt O43264),0.0131
13,ZNF777 C602,-0.0996
14,ZNF746 C385 (UniProt Q6NUN9),-0.107
15,ZFPL1 C56 (UniProt O95159),0.0652
16,ZKSCAN2 C109,-0.0739
17,ZNF407 C1394 (UniProt Q9C0G0),-0.154
18,ZNF106 C643 (UniProt Q9H2Y7),0.00297
19,ZW10 C39 (UniProt O43264),-0.215
20,ZSCAN26 C169 (UniProt Q16670),-0.21
21,ZDHHC5 C245 (UniProt Q9C0B5),0.151
22,ZNF507 C745 (UniProt Q8TCN5),0.289
23,ZFAND5 C168 (UniProt O76080),0.217
24,ZNF776 C238,0.141
25,ZNF239 C167 (UniProt Q16600),0.0738
26,ZNF280C C94 (UniProt Q8ND82),-0.113
27,ZC3HAV1L C15 (UniProt Q96H79),-0.527
28,"ZC3HAV1_(C513,C513,C518,C518) (UniProt Q7Z2W4)",-0.227
29,ZNHIT6 C254 (UniProt Q9NWK9),-0.25

# Looked up above:
# ZMAT3 C107 | log2 mean competition ratio: 0.383
# ZNF239 C167 (UniProt Q16600) | log2 mean competition ratio: 0.0738
